Measured values from patent US10603364B2, “Lysosomal targeting and uses thereof” (Shire Human Genetic Therapies, Inc., priority 2014, dated 2020).
Some entries share one result that the patent states for a list of compounds. Some ranges recur; such a range may be that of the whole group of compounds.

B1: Naglu-SPP: Fusion protein of human Naglu and SORT1 propeptide (SPP) via GAG3 linker; SEQ ID NO:17 (full-length), SEQ ID NO:22 (protein)
chain: MEAVAVAAAVGVLLLAGAGGAAGDEAREAAAVRALVARLLGPGPAADFSVSVERALAAKPGLDTYSLGGGGAARVRVRGSTGVAAAAGLHRYLRDFCGCHVAWSGSQLRLPRPLPAVPGELTEATPNRYRYYQNVCTQSYSFVWWDWARWEREIDWMALNGINLALAWSGQEAIWQRVYLALGLTQAEINEFFTGPAFLAWGRMGNLHTWDGPLPPSWHIKQLYLQHRVLDQMRSFGMTPVLPAFAGHVPEAVTRVFPQVNVTKMGSWGHFNCSYSCSFLLAPEDPIFPIIGSLFLRELIKEFGTDHIYGADTFNEMQPPSSEPSYLAAATTAVYEAMTAVDTEAVWLLQGWLFQHQPQFWGPAQIRAVLGAVPRGRLLVLDLFAESQPVYTRTASFQGQPFIWCMLHNFGGNHGLFGALEAVNGGPEAARLFPNSTMVGTGMAPEGISQNEVVYSLMAELGWRKDPVPDLAAWVTSFAARRYGVSHPDAGAAWRLLLRSVYNCSGEACRGHNRSPLVRRPSLQMNTSIWYNRSDVFEAWRLLLTSAPSLATSPAFRYDLLDLTRQAVQELVSLYYEEARSAYLSKELASLLRAGGVLAYELLPALDEVLASDSRFLLGSWLEQARAAAVSEAEADFYEQNSRYQLTLWGPEGNILDYANKQLAGLVANYYTPRWRLFLEALVDSVAQGIPFQQHQFDKNVFQLEQAFVLSKQRYPSQPRGDTVDLAKKIFLKYYPRWVAGSWGAPGGGGGAAAAAGGGGGGAPGGGGGAAAAAGGGGGGAPGGGGGAAAAAGGGGGGAPQDRLDAPPPPAAPLPRWSGPIGVSWGLRAAAAGGAFPRGGRWRR
B2: Naglu-tPRGN: Fusion protein of human Naglu and Progranulin C-terminal peptide (tPRGN) via GAG3 linker; SEQ ID NO:18, SEQ ID NO:23 (protein)
chain: MEAVAVAAAVGVLLLAGAGGAAGDEAREAAAVRALVARLLGPGPAADFSVSVERALAAKPGLDTYSLGGGGAARVRVRGSTGVAAAAGLHRYLRDFCGCHVAWSGSQLRLPRPLPAVPGELTEATPNRYRYYQNVCTQSYSFVWWDWARWEREIDWMALNGINLALAWSGQEAIWQRVYLALGLTQAEINEFFTGPAFLAWGRMGNLHTWDGPLPPSWHIKQLYLQHRVLDQMRSFGMTPVLPAFAGHVPEAVTRVFPQVNVTKMGSWGHFNCSYSCSFLLAPEDPIFPIIGSLFLRELIKEFGTDHIYGADTFNEMQPPSSEPSYLAAATTAVYEAMTAVDTEAVWLLQGWLFQHQPQFWGPAQIRAVLGAVPRGRLLVLDLFAESQPVYTRTASFQGQPFIWCMLHNFGGNHGLFGALEAVNGGPEAARLFPNSTMVGTGMAPEGISQNEVVYSLMAELGWRKDPVPDLAAWVTSFAARRYGVSHPDAGAAWRLLLRSVYNCSGEACRGHNRSPLVRRPSLQMNTSIWYNRSDVFEAWRLLLTSAPSLATSPAFRYDLLDLTRQAVQELVSLYYEEARSAYLSKELASLLRAGGVLAYELLPALDEVLASDSRFLLGSWLEQARAAAVSEAEADFYEQNSRYQLTLWGPEGNILDYANKQLAGLVANYYTPRWRLFLEALVDSVAQGIPFQQHQFDKNVFQLEQAFVLSKQRYPSQPRGDTVDLAKKIFLKYYPRWVAGSWGAPGGGGGAAAAAGGGGGGAPGGGGGAAAAAGGGGGGAPGGGGGAAAAAGGGGGGAPTKCLRREAPRWDAPLRDPALRQLL
B3: Naglu-SapDC: Fusion protein of human Naglu and Prosaposin DC peptide (SapDC) via GAG3 linker; SEQ ID NO:19, SEQ ID NO:24 (protein)
chain: MEAVAVAAAVGVLLLAGAGGAAGDEAREAAAVRALVARLLGPGPAADFSVSVERALAAKPGLDTYSLGGGGAARVRVRGSTGVAAAAGLHRYLRDFCGCHVAWSGSQLRLPRPLPAVPGELTEATPNRYRYYQNVCTQSYSFVWWDWARWEREIDWMALNGINLALAWSGQEAIWQRVYLALGLTQAEINEFFTGPAFLAWGRMGNLHTWDGPLPPSWHIKQLYLQHRVLDQMRSFGMTPVLPAFAGHVPEAVTRVFPQVNVTKMGSWGHFNCSYSCSFLLAPEDPIFPIIGSLFLRELIKEFGTDHIYGADTFNEMQPPSSEPSYLAAATTAVYEAMTAVDTEAVWLLQGWLFQHQPQFWGPAQIRAVLGAVPRGRLLVLDLFAESQPVYTRTASFQGQPFIWCMLHNFGGNHGLFGALEAVNGGPEAARLFPNSTMVGTGMAPEGISQNEVVYSLMAELGWRKDPVPDLAAWVTSFAARRYGVSHPDAGAAWRLLLRSVYNCSGEACRGHNRSPLVRRPSLQMNTSIWYNRSDVFEAWRLLLTSAPSLATSPAFRYDLLDLTRQAVQELVSLYYEEARSAYLSKELASLLRAGGVLAYELLPALDEVLASDSRFLLGSWLEQARAAAVSEAEADFYEQNSRYQLTLWGPEGNILDYANKQLAGLVANYYTPRWRLFLEALVDSVAQGIPFQQHQFDKNVFQLEQAFVLSKQRYPSQPRGDTVDLAKKIFLKYYPRWVAGSWGAPGGGGGAAAAAGGGGGGAPGGGGGAAAAAGGGGGGAPGGGGGAAAAAGGGGGGAPDGGFCEVCKKLVGYLDRNLEKNSTKQEILAALEKGCSFLPDPYQKQCDQFVAEYEPVLIEILVEVMDPSFVCLKIGACPSAHKPLLGTEKCIWGPSYWCQNTETAAQCNAVEHCKRHVWN
B4: Naglu-IGFII: Fusion protein of human Naglu and IGF-II residues 8-67 via GAG3 linker; SEQ ID NO:20, SEQ ID NO:25; positive control (protein)
chain: MEAVAVAAAVGVLLLAGAGGAAGDEAREAAAVRALVARLLGPGPAADFSVSVERALAAKPGLDTYSLGGGGAARVRVRGSTGVAAAAGLHRYLRDFCGCHVAWSGSQLRLPRPLPAVPGELTEATPNRYRYYQNVCTQSYSFVWWDWARWEREIDWMALNGINLALAWSGQEAIWQRVYLALGLTQAEINEFFTGPAFLAWGRMGNLHTWDGPLPPSWHIKQLYLQHRVLDQMRSFGMTPVLPAFAGHVPEAVTRVFPQVNVTKMGSWGHFNCSYSCSFLLAPEDPIFPIIGSLFLRELIKEFGTDHIYGADTFNEMQPPSSEPSYLAAATTAVYEAMTAVDTEAVWLLQGWLFQHQPQFWGPAQIRAVLGAVPRGRLLVLDLFAESQPVYTRTASFQGQPFIWCMLHNFGGNHGLFGALEAVNGGPEAARLFPNSTMVGTGMAPEGISQNEVVYSLMAELGWRKDPVPDLAAWVTSFAARRYGVSHPDAGAAWRLLLRSVYNCSGEACRGHNRSPLVRRPSLQMNTSIWYNRSDVFEAWRLLLTSAPSLATSPAFRYDLLDLTRQAVQELVSLYYEEARSAYLSKELASLLRAGGVLAYELLPALDEVLASDSRFLLGSWLEQARAAAVSEAEADFYEQNSRYQLTLWGPEGNILDYANKQLAGLVANYYTPRWRLFLEALVDSVAQGIPFQQHQFDKNVFQLEQAFVLSKQRYPSQPRGDTVDLAKKIFLKYYPRWVAGSWGAPGGGGGAAAAAGGGGGGAPGGGGGAAAAAGGGGGGAPGGGGGAAAAAGGGGGGAPLCGGELVDTLQFVCGDRGFYFSRPASRVSRRSRGIVEECCFRSCDLALLETYCATPAKSE
notes: Fusion protein of human Naglu and IGF-II residues 8-67 via GAG3 linker; positive control

experiment: Naglu specific activity and enzyme kinetics with a cleavable fluorescent substrate; format: biochemical; settings: range over the four fusion proteins

Molecule | specific activity Vmax
B1 | 124,147-318,632 nmol/hr/mg
B2 | 124,147-318,632 nmol/hr/mg
B3 | 124,147-318,632 nmol/hr/mg
B4 | 124,147-318,632 nmol/hr/mg
